# In paper PMC7387855:
# Protein sequences, listed by entry. Tags and fused reporters are not part of them.
# UniProt Q9LN63: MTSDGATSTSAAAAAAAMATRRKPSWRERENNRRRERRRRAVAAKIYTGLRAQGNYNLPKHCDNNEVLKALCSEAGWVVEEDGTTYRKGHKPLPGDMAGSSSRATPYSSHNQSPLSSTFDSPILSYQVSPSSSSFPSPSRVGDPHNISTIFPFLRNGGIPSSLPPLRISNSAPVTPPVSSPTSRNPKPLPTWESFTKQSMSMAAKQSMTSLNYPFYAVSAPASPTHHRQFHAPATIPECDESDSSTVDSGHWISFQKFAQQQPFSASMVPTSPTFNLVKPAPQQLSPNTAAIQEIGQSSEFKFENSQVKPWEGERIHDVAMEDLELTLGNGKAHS
# UniProt P0A850: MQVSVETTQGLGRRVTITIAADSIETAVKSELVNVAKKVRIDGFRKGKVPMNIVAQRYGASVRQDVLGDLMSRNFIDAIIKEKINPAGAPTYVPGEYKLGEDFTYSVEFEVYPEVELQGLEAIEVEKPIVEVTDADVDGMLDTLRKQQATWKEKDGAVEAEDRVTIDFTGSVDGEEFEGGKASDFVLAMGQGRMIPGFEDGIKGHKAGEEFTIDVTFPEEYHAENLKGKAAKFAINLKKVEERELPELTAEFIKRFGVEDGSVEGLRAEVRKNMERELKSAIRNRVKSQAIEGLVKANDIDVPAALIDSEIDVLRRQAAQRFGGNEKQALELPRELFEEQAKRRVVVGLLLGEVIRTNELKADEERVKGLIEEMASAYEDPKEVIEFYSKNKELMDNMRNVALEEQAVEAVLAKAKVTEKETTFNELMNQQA
# These are yes or no findings as the source states them, for the method shown. In cells and extracts the contact can be indirect. Some entries that bind do so weakly or less than the wild type. Sequences can lack the tags named with a protein.
# Target: GST-BES1 (UniProt Q9LN63)
# Test: pull-down; in vitro; GST-BES1 as bait; detected with anti-His antibody
row,binding,Molecule
1,no binding,His-TF (from UniProt P0A850 1-432)
2,binds,"His-AGB1 (protein, UniProt P49177 1-377) MSVSELKERHAVATETVNNLRDQLRQRRLQLLDTDVARYSAAQGRTRVSFGATDLVCCRTLQGHTGKVYSLDWTPERNRIVSASQDGRLIVWNALTSQKTHAIKLPCAWVMTCAFSPNGQSVACGGLDSVCSIFSLSSTADKDGTVPVSRMLTGHRGYVSCCQYVPNEDAHLITSSGDQTCILWDVTTGLKTSVFGGEFQSGHTADVLSVSISGSNPNWFISGSCDSTARLWDTRAASRAVRTFHGHEGDVNTVKFFPDGYRFGTGSDDGTCRLYDIRTGHQLQVYQPHGDGENGPVTSIAFSVSGRLLFAGYASNNTCYVWDTLLGEVVLDLGLQQDSHRNRISCLGLSADGSALCTGSWDSNLKIWAFGGHRRVI"
